In article PMC5399635 (The Journal of Pharmacology and Experimental Therapeutics, 2017):

Conditions: rat, in vivo, 30 s, 20 μM, pH 7.4

Brain Uptake: 5.2 ± 2.2 pmol/g brain/s
Structure (SMILES): CC(C)NCC(O)COc1ccc(CC(N)=O)cc1 (stereo not shown) [Atenolol, atenolol]
